Experimental data taken from the supplement of paper PMC10849652.
This is one part of the list.

Sequences of proteins named here, by UniProt entry; tags and fusion partners are left off. A change or cut given only in a name is not applied to a line headed by its entry.
UniProt Q13469: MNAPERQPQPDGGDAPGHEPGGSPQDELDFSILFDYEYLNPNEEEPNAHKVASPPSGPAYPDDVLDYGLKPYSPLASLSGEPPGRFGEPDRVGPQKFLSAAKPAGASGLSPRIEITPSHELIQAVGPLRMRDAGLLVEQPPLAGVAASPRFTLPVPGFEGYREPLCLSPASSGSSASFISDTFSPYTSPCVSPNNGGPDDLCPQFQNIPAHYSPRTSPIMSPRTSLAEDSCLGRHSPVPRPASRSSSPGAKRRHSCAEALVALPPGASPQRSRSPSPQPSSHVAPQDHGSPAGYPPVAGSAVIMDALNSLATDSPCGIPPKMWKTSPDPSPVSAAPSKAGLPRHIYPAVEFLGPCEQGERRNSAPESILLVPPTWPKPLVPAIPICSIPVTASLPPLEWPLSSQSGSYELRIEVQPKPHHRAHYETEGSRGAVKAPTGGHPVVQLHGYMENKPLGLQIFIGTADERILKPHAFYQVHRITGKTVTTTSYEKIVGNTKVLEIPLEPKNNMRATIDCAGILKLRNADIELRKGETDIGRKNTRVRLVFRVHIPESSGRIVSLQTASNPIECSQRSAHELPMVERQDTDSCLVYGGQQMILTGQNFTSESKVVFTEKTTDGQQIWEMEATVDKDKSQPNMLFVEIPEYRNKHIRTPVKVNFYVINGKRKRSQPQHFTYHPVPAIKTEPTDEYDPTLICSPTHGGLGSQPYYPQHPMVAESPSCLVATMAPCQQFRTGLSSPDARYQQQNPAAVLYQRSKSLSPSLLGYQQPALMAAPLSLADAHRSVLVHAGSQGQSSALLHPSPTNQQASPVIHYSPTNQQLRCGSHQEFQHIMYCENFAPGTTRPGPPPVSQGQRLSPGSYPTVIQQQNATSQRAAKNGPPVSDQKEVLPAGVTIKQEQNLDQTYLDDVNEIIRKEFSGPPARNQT
UniProt Q86WQ0: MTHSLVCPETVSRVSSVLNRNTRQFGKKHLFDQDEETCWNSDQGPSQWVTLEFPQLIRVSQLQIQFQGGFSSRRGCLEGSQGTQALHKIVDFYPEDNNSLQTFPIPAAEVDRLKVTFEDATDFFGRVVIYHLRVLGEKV
UniProt Q9H3P2, whole entry, looked up: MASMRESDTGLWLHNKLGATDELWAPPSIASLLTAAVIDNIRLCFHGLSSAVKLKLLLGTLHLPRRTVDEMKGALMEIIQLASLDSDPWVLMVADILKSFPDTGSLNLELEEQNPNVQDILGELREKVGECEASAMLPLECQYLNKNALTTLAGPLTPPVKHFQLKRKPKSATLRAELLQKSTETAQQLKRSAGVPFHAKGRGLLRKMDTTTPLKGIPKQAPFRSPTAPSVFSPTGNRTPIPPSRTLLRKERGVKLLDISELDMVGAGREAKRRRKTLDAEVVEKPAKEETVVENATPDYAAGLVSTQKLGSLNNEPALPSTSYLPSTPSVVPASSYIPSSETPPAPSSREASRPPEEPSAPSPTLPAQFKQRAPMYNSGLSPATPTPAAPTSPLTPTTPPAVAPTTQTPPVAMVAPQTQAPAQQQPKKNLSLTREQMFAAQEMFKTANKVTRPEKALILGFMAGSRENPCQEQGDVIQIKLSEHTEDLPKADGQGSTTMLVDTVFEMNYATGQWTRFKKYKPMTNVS
UniProt Q9HAN9, whole entry, looked up: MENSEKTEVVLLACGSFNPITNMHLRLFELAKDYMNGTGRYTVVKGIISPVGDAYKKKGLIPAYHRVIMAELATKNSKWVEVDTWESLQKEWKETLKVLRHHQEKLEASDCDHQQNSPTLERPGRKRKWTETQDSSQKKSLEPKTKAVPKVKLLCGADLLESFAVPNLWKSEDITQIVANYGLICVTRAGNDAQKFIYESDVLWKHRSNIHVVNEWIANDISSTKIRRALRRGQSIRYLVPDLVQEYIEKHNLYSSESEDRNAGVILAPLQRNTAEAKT
UniProt P19838: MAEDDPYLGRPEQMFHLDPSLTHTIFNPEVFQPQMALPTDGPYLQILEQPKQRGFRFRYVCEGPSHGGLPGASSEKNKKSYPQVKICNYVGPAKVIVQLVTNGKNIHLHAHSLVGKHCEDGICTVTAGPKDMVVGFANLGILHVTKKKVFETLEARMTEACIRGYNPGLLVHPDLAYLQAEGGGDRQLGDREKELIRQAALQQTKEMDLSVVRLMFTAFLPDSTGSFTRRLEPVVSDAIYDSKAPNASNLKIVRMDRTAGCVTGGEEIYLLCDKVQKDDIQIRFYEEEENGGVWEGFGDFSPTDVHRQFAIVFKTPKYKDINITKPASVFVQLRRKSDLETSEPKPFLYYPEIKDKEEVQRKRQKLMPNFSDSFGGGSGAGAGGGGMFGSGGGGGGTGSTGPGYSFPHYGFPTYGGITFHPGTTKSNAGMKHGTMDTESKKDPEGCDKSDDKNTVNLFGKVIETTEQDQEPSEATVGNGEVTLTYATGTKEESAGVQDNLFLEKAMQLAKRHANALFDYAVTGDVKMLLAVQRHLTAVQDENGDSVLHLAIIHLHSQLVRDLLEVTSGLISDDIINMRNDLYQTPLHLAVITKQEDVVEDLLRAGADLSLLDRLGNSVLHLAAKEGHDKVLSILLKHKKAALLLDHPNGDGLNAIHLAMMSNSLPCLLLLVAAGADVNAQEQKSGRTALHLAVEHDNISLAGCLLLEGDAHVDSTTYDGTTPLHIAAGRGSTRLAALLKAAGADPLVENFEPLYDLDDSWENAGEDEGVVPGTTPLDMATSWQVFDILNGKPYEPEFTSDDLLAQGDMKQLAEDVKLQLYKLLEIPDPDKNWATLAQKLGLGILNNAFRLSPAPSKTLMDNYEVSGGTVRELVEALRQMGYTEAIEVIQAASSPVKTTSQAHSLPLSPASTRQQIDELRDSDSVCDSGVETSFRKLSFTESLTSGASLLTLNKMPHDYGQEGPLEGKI
UniProt P46087: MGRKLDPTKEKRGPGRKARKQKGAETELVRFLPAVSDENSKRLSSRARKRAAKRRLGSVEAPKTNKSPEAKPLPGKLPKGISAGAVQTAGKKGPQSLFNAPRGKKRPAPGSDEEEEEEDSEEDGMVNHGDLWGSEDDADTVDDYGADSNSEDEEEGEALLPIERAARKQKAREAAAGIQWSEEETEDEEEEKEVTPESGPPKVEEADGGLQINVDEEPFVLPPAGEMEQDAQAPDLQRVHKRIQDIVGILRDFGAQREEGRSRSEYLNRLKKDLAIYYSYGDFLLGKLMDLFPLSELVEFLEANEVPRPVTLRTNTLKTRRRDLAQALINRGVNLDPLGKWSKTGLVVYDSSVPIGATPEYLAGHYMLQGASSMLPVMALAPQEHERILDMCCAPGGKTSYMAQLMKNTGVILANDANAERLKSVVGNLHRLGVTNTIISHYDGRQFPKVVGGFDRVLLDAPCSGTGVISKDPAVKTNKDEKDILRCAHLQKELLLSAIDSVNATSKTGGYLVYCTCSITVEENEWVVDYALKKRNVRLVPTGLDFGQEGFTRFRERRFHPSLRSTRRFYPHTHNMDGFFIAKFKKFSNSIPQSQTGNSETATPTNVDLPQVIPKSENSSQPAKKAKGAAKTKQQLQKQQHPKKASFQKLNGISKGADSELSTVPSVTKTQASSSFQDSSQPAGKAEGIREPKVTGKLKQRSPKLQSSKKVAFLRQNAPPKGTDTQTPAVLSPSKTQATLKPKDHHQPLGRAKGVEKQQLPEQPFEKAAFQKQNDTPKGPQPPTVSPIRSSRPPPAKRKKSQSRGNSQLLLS
UniProt O15118: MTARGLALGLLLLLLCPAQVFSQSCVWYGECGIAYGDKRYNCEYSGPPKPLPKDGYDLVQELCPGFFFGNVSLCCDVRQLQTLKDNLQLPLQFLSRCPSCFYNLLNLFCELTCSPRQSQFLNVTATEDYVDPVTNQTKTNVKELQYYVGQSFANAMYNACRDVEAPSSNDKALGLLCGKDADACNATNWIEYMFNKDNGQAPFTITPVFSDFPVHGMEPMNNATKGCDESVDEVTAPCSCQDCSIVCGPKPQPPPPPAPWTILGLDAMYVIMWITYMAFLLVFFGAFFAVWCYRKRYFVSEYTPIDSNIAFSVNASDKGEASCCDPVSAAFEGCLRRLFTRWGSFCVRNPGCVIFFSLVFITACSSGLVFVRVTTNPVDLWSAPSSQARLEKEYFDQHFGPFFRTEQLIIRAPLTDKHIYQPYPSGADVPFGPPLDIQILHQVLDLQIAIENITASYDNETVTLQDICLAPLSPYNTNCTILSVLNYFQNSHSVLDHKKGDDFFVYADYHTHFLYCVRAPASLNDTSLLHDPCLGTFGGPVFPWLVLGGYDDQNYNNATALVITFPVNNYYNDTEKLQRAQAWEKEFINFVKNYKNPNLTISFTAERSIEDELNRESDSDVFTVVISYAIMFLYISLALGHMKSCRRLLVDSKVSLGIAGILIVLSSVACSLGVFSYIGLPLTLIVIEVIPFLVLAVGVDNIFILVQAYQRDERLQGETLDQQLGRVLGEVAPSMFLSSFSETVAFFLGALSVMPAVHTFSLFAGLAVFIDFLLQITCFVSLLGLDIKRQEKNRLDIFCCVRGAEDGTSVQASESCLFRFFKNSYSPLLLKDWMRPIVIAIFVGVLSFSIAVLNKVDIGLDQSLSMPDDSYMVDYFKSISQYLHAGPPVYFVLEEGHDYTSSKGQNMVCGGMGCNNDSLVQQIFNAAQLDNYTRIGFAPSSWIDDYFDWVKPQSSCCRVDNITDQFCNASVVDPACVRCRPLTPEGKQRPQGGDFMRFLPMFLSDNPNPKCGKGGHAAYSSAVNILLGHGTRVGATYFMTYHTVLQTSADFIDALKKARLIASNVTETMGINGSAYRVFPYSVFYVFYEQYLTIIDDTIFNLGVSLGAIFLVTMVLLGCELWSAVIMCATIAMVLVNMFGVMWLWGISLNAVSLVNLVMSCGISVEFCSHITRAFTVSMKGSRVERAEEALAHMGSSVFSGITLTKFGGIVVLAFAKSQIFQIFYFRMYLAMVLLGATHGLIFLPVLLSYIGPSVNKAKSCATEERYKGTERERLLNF
UniProt Q9BZQ8: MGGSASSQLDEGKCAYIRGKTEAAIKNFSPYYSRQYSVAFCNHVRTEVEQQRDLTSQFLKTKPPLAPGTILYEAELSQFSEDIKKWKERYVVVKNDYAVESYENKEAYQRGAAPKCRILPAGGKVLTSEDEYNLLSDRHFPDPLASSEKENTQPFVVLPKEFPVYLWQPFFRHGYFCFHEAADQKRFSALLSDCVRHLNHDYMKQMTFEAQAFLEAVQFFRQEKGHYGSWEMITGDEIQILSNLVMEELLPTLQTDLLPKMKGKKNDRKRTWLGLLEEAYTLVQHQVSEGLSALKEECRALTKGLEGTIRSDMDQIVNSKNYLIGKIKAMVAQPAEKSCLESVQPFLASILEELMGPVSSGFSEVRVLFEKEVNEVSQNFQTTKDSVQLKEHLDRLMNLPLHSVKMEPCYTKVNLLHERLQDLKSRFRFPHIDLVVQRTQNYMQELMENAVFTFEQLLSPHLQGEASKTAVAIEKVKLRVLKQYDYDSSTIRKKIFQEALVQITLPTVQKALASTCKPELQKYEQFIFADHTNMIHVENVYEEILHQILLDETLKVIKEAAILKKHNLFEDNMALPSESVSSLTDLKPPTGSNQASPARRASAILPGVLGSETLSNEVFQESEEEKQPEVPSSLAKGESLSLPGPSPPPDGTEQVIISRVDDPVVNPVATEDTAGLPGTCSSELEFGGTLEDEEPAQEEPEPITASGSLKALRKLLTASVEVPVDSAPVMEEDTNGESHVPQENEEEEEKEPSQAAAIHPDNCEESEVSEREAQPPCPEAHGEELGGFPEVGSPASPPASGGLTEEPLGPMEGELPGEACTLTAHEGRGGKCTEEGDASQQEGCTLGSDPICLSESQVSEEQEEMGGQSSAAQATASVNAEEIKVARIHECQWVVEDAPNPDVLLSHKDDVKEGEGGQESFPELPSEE
UniProt Q14978: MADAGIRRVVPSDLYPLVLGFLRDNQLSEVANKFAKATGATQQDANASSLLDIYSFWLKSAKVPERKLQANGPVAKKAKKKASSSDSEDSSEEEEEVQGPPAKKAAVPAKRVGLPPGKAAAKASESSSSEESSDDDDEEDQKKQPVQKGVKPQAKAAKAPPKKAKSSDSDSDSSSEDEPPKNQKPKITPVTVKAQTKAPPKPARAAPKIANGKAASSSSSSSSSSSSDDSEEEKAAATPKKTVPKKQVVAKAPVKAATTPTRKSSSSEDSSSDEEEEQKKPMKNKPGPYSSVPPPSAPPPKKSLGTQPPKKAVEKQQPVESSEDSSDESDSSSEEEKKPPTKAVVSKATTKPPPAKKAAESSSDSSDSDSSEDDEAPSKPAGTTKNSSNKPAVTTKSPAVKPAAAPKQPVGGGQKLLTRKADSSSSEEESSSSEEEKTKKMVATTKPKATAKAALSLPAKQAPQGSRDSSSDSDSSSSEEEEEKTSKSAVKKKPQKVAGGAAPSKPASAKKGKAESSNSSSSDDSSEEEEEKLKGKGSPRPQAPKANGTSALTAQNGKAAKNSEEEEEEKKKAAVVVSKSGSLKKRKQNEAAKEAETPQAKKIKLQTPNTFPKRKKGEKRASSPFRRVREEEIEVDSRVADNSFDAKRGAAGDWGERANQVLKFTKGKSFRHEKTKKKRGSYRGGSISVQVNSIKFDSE

Tests used:
Assay in all cases: log2 fold change, soluble protein after heating vs DMSO (PISA); higher = thermal stabilisation; K562 cells, 10 uM, 30 min; active = over 0.2 and 3.5 SD of the protein, either way, in both replicates (recomputed)
saracatinib = compound: CN1CCN(CCOc2cc(OC3CCOCC3)c3c(Nc4c(Cl)ccc5c4OCO5)ncnc3c2)CC1 [saracatinib]
Summary of the method: (§1)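 K562 cells at 2×10^6 cells/mL were given 10 μM compound for 30 min. Aliquots then went through 3 min of heating across 48°C-58°C, were pooled, and were extracted in PBS with 0.5% NP-40 at 4°C, and the supernatant after 21,000xg for 90 min was quantified by TMTpro 16plex LC-MS/MS with channel sums equalised. Thermal stability relative to control samples, from duplicates, is given as log2 fold change.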

sotrastaurin = compound: CN1CCN(c2nc(C3=C(c4c[nH]c5ccccc45)C(=O)NC3=O)c3ccccc3n2)CC1 [sotrastaurin]
Summary of the method: as §1

Tubastatin A = compound: CN1CCc2c(c3ccccc3n2Cc2ccc(C(=O)NO)cc2)C1 [Tubastatin A]
Summary of the method: as §1

[1] = compound: CNC(=O)C1=CC=CC=C1NC2=NC(=NC=C2Cl)NC3=C(C=C(C=C3)N4CCOCC4)OC
Summary of the method: as §1

defactinib = compound: CNC(=O)c1ccc(Nc2ncc(C(F)(F)F)c(NCc3nccnc3N(C)S(C)(=O)=O)n2)cc1 [defactinib]
Summary of the method: as §1

rucaparib = compound: CNCc1ccc(-c2[nH]c3cc(F)cc4c3c2CCNC4=O)cc1 [rucaparib]
Summary of the method: as §1

[2] = compound: CNc1nc(-c2ccc3c(N)n[nH]c3c2)cc(N2C[C@@H](C(=O)NC3CCCCC3)CC[C@H]2C)n1
Summary of the method: as §1

encorafenib = compound: COC(=O)N[C@@H](C)CNc1nccc(-c2cn(C(C)C)nc2-c2cc(Cl)cc(NS(C)(=O)=O)c2F)n1 [encorafenib]
Summary of the method: as §1

[3] = compound: COC(=O)[C@H](CCSC)NC(=O)C1=C(C=C(C=C1)NC[C@H](CS)N)C2=CC=CC=C2
Summary of the method: as §1

| Target | log2 fold change (saracatinib) | log2 fold change (sotrastaurin) | log2 fold change (Tubastatin A) | log2 fold change [1] | log2 fold change (defactinib) | log2 fold change (rucaparib) | log2 fold change [2] | log2 fold change (encorafenib) | log2 fold change [3] |
| --- | --- | --- | --- | --- | --- | --- | --- | --- | --- |
| NFATC2 (UniProt Q13469) | inactive: -0.128 | inactive: -0.166 | inactive: 0.118 | inactive: 0.007 | inactive: -0.14 | inactive: -0.047 | active: -0.382 | inactive: 0.101 | inactive: 0.071 |
| NOSIP (UniProt Q9Y314) | inactive: -0.045 | inactive: -0.28 | inactive: 0.199 | inactive: 0.05 | inactive: -0.199 | inactive: 0.003 | inactive: -0.106 | inactive: 0.181 | inactive: -0.182 |
| NFX1 (UniProt Q12986) | inactive: -0.246 | inactive: -0.09 | inactive: -0.001 | inactive: 0.014 | inactive: 0.009 | inactive: 0.269 | inactive: -0.237 | inactive: -0.01 | inactive: 0 |
| NOL11 (UniProt Q9H8H0) | inactive: 0.093 | inactive: 0.022 | inactive: -0.08 | inactive: 0.007 | inactive: 0.186 | inactive: 0.071 | inactive: 0.002 | inactive: -0.012 | inactive: -0.009 |
| NR2C2AP isoform 2 (UniProt Q86WQ0) | inactive: 0.086 | inactive: 0.018 | inactive: 0.099 | inactive: 0.027 | inactive: -0.106 | inactive: -0.031 | inactive: 0.073 | inactive: -0.048 | inactive: -0.115 |
| NELFA (UniProt Q9H3P2) | inactive: 0.004 | inactive: -0.023 | inactive: 0.216 | inactive: 0.078 | inactive: -0.094 | inactive: 0.261 | inactive: -0.014 | inactive: -0.039 | inactive: -0.213 |
| NMNAT1 (UniProt Q9HAN9) | inactive: -0.044 | inactive: -0.033 | inactive: 0.07 | inactive: -0.121 | inactive: 0.237 | inactive: 0.354 | inactive: 0.02 | inactive: 0.147 | inactive: 0.091 |
| NFKB1 isoform 2 (UniProt P19838) | inactive: -0.118 | inactive: -0.234 | inactive: 0.111 | inactive: -0.027 | inactive: -0.058 | inactive: 0.097 | inactive: -0.015 | inactive: 0.097 | inactive: -0.085 |
| NOP2 isoform 4 (UniProt P46087) | inactive: -0.09 | inactive: -0.007 | inactive: 0.079 | inactive: 0.064 | active: 1.26 | inactive: 0.673 | inactive: 0.115 | inactive: 0.238 | inactive: -0.024 |
| NPC1 (UniProt O15118) | inactive: 0.077 | inactive: 0.007 | inactive: -0.045 | inactive: 0.02 | inactive: 0.01 | inactive: -0.147 | inactive: -0.049 | inactive: -0.012 | inactive: -0.006 |
| NIBAN1 (UniProt Q9BZQ8) | inactive: -0.051 | inactive: -0.086 | inactive: 0.004 | inactive: -0.013 | inactive: -0.111 | inactive: 0.08 | inactive: 0.013 | inactive: 0.144 | inactive: -0.017 |
| NOLC1 isoform 2 (UniProt Q14978) | inactive: -0.007 | inactive: -0.036 | inactive: 0.153 | inactive: -0.122 | active: -0.346 | inactive: -0.025 | inactive: -0.089 | inactive: -0.007 | inactive: 0 |
